Measured values as given in article doi:10.1101/2023.07.10.548434.
These are yes or no findings as the source states them, for the method shown. For some assays here: In cells and extracts the contact can be indirect. Some results given as binding are weak or reduced against the parent protein; the word gives no strength.

Chains of the proteins cited; added tags and fusions are not shown.
UniProt Q6FXU7: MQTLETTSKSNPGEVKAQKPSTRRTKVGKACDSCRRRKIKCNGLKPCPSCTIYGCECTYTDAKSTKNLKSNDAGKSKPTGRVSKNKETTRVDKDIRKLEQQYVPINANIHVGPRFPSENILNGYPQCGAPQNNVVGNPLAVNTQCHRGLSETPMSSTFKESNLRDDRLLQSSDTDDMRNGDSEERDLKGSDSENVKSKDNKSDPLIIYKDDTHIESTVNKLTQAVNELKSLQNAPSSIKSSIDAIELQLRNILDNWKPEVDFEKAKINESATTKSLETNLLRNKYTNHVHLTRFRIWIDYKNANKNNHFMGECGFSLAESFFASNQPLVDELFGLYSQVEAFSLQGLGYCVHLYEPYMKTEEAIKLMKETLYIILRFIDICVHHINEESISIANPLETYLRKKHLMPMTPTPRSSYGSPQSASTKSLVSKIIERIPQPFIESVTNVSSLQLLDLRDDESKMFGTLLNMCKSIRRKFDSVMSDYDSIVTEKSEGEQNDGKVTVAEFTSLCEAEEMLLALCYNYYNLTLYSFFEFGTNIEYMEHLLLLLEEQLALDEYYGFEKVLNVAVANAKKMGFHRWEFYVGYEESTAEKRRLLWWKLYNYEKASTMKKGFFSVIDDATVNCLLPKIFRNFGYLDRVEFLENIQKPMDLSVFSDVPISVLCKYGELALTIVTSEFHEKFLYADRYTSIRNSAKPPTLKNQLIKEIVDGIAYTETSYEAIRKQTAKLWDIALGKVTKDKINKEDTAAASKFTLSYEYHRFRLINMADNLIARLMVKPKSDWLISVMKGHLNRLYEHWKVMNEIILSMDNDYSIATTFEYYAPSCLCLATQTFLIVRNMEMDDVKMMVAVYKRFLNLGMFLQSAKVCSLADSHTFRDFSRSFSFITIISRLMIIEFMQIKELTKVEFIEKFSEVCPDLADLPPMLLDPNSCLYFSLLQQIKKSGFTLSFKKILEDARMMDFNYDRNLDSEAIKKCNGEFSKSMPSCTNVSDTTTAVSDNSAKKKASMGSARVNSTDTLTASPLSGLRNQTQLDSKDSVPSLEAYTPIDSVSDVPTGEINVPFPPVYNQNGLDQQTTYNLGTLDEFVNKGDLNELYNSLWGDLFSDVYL

How the values were obtained:
[1] = biological target: Pdr1 (wild-type) (Candida glabrata) (UniProt Q6FXU7); test: co-IP
[2] = biological target: tandem affinity purification (TAP)-tagged form of Pdr1 (Candida glabrata) (UniProt Q6FXU7); test: tandem affinity purification

Substance	binding [1]	binding [2]
Cna1-2X FLAG protein (from UniProt Q6FKJ3 1-575) (enzyme)	binds	–
catalytic subunit of the protein phosphatase calcineurin (Cna1) (from UniProt Q6FKJ3 1-575) (enzyme)	–	binds
